Data as given in PubChem BioAssay AID743121 (NCATS, 2013).
Here is an unselected part of about 26,000 reagents. In the full data, 167 (0.63%) were called active. 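Calls are per gene from RSA p-values that are not deposited; an individual active-marked siRNA can sensitise only weakly.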 Further read-outs or replicates are left out here. Reagent sequences are not shown.

Assay: 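Genes whose silencing strengthens cell killing by camptothecin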 (primary screen)
Cells: MDA-MB-231 cells, a human breast cancer line
Reagents: single siRNA against human genes, 20 nM siRNA (0.8 pmol per well)
Time to read-out: 120 h (drug added 48 h after transfection, read 72 h later)
Challenge: camptothecin 20 nM (about EC30) for 72 h; vehicle 0.1% DMSO in parallel plates
Read-out: 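Cell viability by ATP luminescence (CellTiter-Glo) as % of non-targeting siRNA wells, and the log2 ratio of viability without drug over viability with camptothecin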
Direction: log2 vehicle/camptothecin viability: higher = stronger sensitisation to camptothecin
Rule for the call: 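Active genes have an RSA gene-level p-value below 0.001, computed from the ratios of their separate siRNAs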

Against HPGD [SID164369916], the values are log2 vehicle/camptothecin viability 0.251; inactive. Against HPGD [SID164369917], the entry reads log2 vehicle/camptothecin viability -0.496; inactive. Silencing of HPGD [SID164369918] gave: log2 vehicle/camptothecin viability -0.313; inactive. For HPGD [SID164369919], the values are log2 vehicle/camptothecin viability 2.18; inactive. Against HTR3C [SID164580615] the deposit lists log2 vehicle/camptothecin viability 0.00125; inactive. Against HTR3C [SID164580616], the entry reads log2 vehicle/camptothecin viability -0.0472; inactive.

With knock-down of HTR3C [SID164580617], the screen gave log2 vehicle/camptothecin viability -0.0965; inactive. Depletion of H1-0 [SID164368355] resulted in: log2 vehicle/camptothecin viability -0.144; inactive. Depletion of H1-0 [SID164368357] gave: log2 vehicle/camptothecin viability 0.24; inactive. After knock-down of H1-0 [SID164368358], the screen gave log2 vehicle/camptothecin viability 0.138; inactive. After knock-down of BMPR1A [SID164355452] the results were log2 vehicle/camptothecin viability -0.0299; inactive. BMPR1A [SID164355454] gave log2 vehicle/camptothecin viability -0.205; inactive.

Knock-down of BMPR1A [SID164355455] came out at: log2 vehicle/camptothecin viability -0.137; inactive. Depletion of BMPR1A [SID164355458] gave: log2 vehicle/camptothecin viability -0.111; inactive. Silencing of PSMC3 [SID164383423] came out at: log2 vehicle/camptothecin viability 0.127; inactive. Against PSMC3 [SID164383426] the deposit lists log2 vehicle/camptothecin viability -0.406; inactive. After knock-down of PSMC3 [SID164383428], the record shows log2 vehicle/camptothecin viability -0.505; inactive. Knock-down of PSMC3 [SID164383429] came out at: log2 vehicle/camptothecin viability -0.339; inactive.

With knock-down of DFFB [SID164361445] the results were log2 vehicle/camptothecin viability -0.0947; inactive. Depletion of DFFB [SID164361446] resulted in: log2 vehicle/camptothecin viability -0.0544; inactive. After knock-down of DFFB [SID164361448], the screen gave log2 vehicle/camptothecin viability -0.412; inactive. Knock-down of DFFB [SID164361449] gave: log2 vehicle/camptothecin viability -0.0179; inactive. After knock-down of PIK3R4 [SID164469403], the screen gave log2 vehicle/camptothecin viability -0.0503; inactive. Silencing of PIK3R4 [SID164469404] gave: log2 vehicle/camptothecin viability -0.338; inactive.

Silencing of PIK3R4 [SID164469405] resulted in: log2 vehicle/camptothecin viability -0.462; inactive. After knock-down of PIK3R4 [SID164469409] the results were log2 vehicle/camptothecin viability -0.603; inactive. After knock-down of SPEN [SID164444992], the record shows log2 vehicle/camptothecin viability -0.177; inactive. Silencing of SPEN [SID164444993] gave: log2 vehicle/camptothecin viability -0.511; inactive. With knock-down of SPEN [SID164444994], the record shows log2 vehicle/camptothecin viability -0.107; inactive. Against SPEN [SID164444996] the deposit lists log2 vehicle/camptothecin viability -0.198; inactive.

Against FHL5 [SID164403899] the deposit lists log2 vehicle/camptothecin viability -0.0617; inactive. Depletion of FHL5 [SID164403902] came out at: log2 vehicle/camptothecin viability 0.0681; inactive. Knock-down of FHL5 [SID164403903] resulted in: log2 vehicle/camptothecin viability 0.0794; inactive. Knock-down of FHL5 [SID164403904] gave: log2 vehicle/camptothecin viability -0.486; inactive. With knock-down of MGAM [SID164400968] the results were log2 vehicle/camptothecin viability 0.149; inactive. For MGAM [SID164400970] the deposit lists log2 vehicle/camptothecin viability -0.0757; inactive.

Against MGAM [SID164400972] the deposit lists log2 vehicle/camptothecin viability 0.103; inactive. MGAM [SID164400973] showed log2 vehicle/camptothecin viability 0.0765; inactive.
